Results on 38 molecules are retold here after PubChem BioAssay AID2685 (National Center for Advancing Translational Sciences (NCATS), 2010).

Each structure is given as a SMILES string. Some of the results follow. These are further read-outs of the screen, such as a control signal, another cell line or another target. No call is given for them. Most of these compounds were active or inconclusive in the main read-out, so they are no random draw. Words in brackets tell the shape of the fitted curve; partial curves, single points and poor fits give uncertain potencies.

This experiment is described as follows: qHTS Assay for Lipid Storage Modulators in Drosophila S3 Cells.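 As to cell number change: cells counted by Cell Tracker Red CMTPX staining in the red channel.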 The following applies: BODIPY lipid droplet fluorescence, 18-24 h; for cell number change: measured here: cell count max response, cells fed with added oleic acid. Put shortly:
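Drosophila S3 cells got compounds at several concentrations plus oleic acid (400 uM solution). Laser-scanning cytometry with 488 nm excitation read lipid droplets at 500-530 nm and cells at 575-640 nm. Percent activity was relative to 20 uM Triacsin C.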
On the technique in general: Quantitative high-throughput screening tests each substance at several concentrations.

[1] abbreviates: measured here: lipid fluorescence (Fed channel) AC50, cells fed with added oleic acid.
Setting [2] is: measured here: cell number channel AC50, cells fed with added oleic acid.

As to `CN1CCN(CC#CCC(O)(c2ccccc2)c2ccccc2)CC1`, the cell number change was -8.65%. Also, the AC50 under setting [1] is 3.26 µM [rising, single point].

On to `CCOC(=O)CCCNC(=O)CCCNC(=O)C(c1ccccc1)c1ccccc1`, for which the cell number change was -4.09%. The AC50 under setting [1] is 29.1 µM [falling, single point].

In the case of `O=C(NCC(c1ccco1)N1CCc2ccccc2C1)c1ccccc1` (configuration not stated), the cell number change was -20.5%.

Consider `Cc1ccccc1OCC(=O)Nc1ccc(N2CCOCC2)cc1N1CCOCC1`, for which the cell number change is -16.5%. For the same molecule, under setting [1], the concentration at half-maximal activity (AC50) is 2.06 µM [rising, partial curve, poor fit].

Consider `CCOc1cc(-c2cc(-c3ccc(OC)cc3)nc(N)c2C#N)ccc1O`, for which the cell number change is -14.1%. For the same molecule, under setting [2], the AC50 was 0.103 µM [falling, full curve, poor fit].

As for `CCCCOc1ccc(Cl)cc1CSc1nnc(C)n1N`, under setting [2], the AC50 is 3.26 µM [rising, single point].

With `CC(C)c1ccc(NC(=O)CSc2nc3ccsc3c(=O)n2CCC(=O)O)cc1`, the cell number change is 105%. Also, the AC50 under setting [2] is 16.4 µM [rising, single point]. In addition, the AC50 under setting [1] was 29.1 µM [falling, partial curve].

For `O=c1c2ccccc2oc2ccc(NCCCN3CCOCC3)cc12`, the cell number change was -1.94%. Moreover, the concentration at half-maximal activity (AC50) under setting [1] is 20.6 µM [rising, partial curve].

On to `O=C(N/C(=C\c1ccc(Br)cc1)C(=O)N1CCCC1)c1cccs1`, for which the cell number change is 7.44%.

Take `CNC(=S)N1CCN(c2ccc(Cl)c(Cl)c2)CC1`: the cell number change was found to be 4%. The AC50 under setting [1] is 29.1 µM [falling, single point].

Regarding `C/C(=N\NC(=O)c1nnn(-c2nonc2N)c1CSc1ccccc1)c1cccnc1`, the cell number change was -15.3%.

As for `CCc1ccc2c(c1)C1(NN=C(c3ccccc3)S1)C(=O)N2` (configuration not stated), the cell number change is -69.3%. Under setting [2], the AC50 was 25.9 µM [falling, partial curve]. Also, the AC50 under setting [1] was 25.9 µM [falling, partial curve].

For the molecule `CCCCCCCCCCCCCCCC[N+](C)(C)CC`, the cell number change is -61.1%. Besides, the AC50 under setting [2] is 14.6 µM [falling, partial curve, poor fit]. In addition, the AC50 under setting [1] is 11.6 µM [falling, partial curve].

With `CCOc1cc(N2CCOCC2)c(OCC)cc1NC(=O)c1c(C)noc1C`, the cell number change is 1.39%. Besides, the AC50 under setting [1] was 7.31 µM [rising, partial curve].

In the case of `COc1ccc(CNC(=S)NCc2ccc(F)cc2)cc1OC`, the cell number change is -33.2%.

On to `COc1ccc(-c2csc(NC(C)=O)n2)cc1OC`, for which the cell number change is -1.79%. Besides, the AC50 under setting [1] was 1.84 µM [rising, partial curve].

Consider `COC(=O)c1cc(=O)nc2sccn12`, for which the cell number change came out at 19.8%. Besides, under setting [2], the AC50 was 0.231 µM [rising, full curve, poor fit]. For the same molecule, the AC50 under setting [1] was 0.651 µM [falling, single point].

Regarding `O=C(COc1ccc([N+](=O)[O-])cc1)Nc1cc(S(=O)(=O)N2CCCCC2)ccc1N1CCCCC1`, the cell number change amounted to 42.9%. Further, under setting [2], the AC50 was 8.2 µM [rising, partial curve]. Also, the AC50 under setting [1] is 9.2 µM [rising, partial curve].

Take `Cc1cc(Cl)ccc1OCC(O)CNCCc1ccc(S(N)(=O)=O)cc1` (configuration not stated): the AC50 under setting [1] was 29.1 µM [rising, single point].

Consider `CC(/C=C1\NC(=S)NC1=O)=C\c1ccccc1`, for which the cell number change is -30.6%. Moreover, the AC50 under setting [2] is 16.4 µM [falling, single point]. The AC50 under setting [1] is 0.0517 µM [falling, full curve, poor fit].

In the case of `COc1ccc(Cl)cc1C(=O)n1nc(C)cc1C`, the cell number change worked out at 34.3%. The AC50 under setting [2] was 6.51 µM [rising, partial curve, poor fit]. In addition, the AC50 under setting [1] was 6.51 µM [falling, single point].

Consider `CC[C@H](C)[C@H](NS(=O)(=O)c1ccc(C)cc1)C(=O)N1CCC(C(=O)N[C@@H](C)C(=O)O)CC1`, for which the cell number change is -35.1%. In addition, the AC50 under setting [2] is 0.651 µM [falling, full curve]. Moreover, the half-maximal activity concentration (AC50) under setting [1] is 0.82 µM [falling, full curve, poor fit].

With `Nc1ncc([N+](=O)[O-])c(Oc2ccccc2F)n1`, the cell number change was -17.5%. For the same molecule, the AC50 under setting [1] is 0.231 µM [falling, full curve].

In the case of `COc1ccccc1CNC(=O)CN1C(=O)c2ccc([N+](=O)[O-])cc2C1=O`, the cell number change was determined as 6.58%. Besides, the AC50 under setting [1] was 5.62 µM [rising, single point].

With `COc1ccccc1-c1nc(C#N)c(N2CCC(C(N)=O)CC2)o1`, the cell number change was -0.713%. Besides, the AC50 under setting [1] is 23.1 µM [falling, single point].

As to `Cc1onc(C(=O)NCc2ccccn2)c1[N+](=O)[O-]`, the cell number change came out at 11.4%.

For the molecule `Cc1ccc(S(=O)(=O)NC(=O)Nc2c(C)cccc2C)cc1`, the cell number change was -3.81%. Moreover, under setting [1], the AC50 is 6.51 µM [falling, single point].

For the molecule `CC1CCCN(c2nc3ccccc3nc2C(C#N)S(=O)(=O)c2ccccc2)C1` (configuration not stated), the cell number change is -19.1%. Besides, under setting [1], the AC50 was 0.0731 µM [falling, full curve, poor fit].

Turning to `O=[N+]([O-])c1cccc(/C(=N/N=C/c2ccccc2Br)C23CN4CN(CN(C4)C2)C3)c1`, the cell number change worked out at 11.8%. For the same molecule, under setting [2], the AC50 was 2.31 µM [rising, partial curve]. Further, under setting [1], the AC50 is 1.3 µM [rising, full curve].

On to `O=C(CNc1ccccc1F)Nc1cccc(S(=O)(=O)N2CCCCC2)c1`, for which the cell number change was 43.8%. Also, the AC50 under setting [2] was 7.31 µM [rising, partial curve].

As to `O=C(NC(=S)N1CCN(Cc2ccc3c(c2)OCO3)CC1)c1cccc(Br)c1`, the cell number change was determined as 16.9%.

In the case of `CCOc1ccccc1C(=O)Nc1cc(C(=O)NCC(C)C)ccc1Cl`, the cell number change was -9.18%. Besides, the half-maximal activity concentration (AC50) under setting [1] is 29.1 µM [falling, partial curve].

For the molecule `COc1ccc(Cc2nnc(SCC(=O)Nc3ccc(N4CCOCC4)cc3)n2C)cc1`, the cell number change was found to be 40.8%.

`CN(C)c1cc(-c2ccccc2)nc(-c2ccccc2)n1`: the cell number change turned out to be 15%. For the same molecule, the AC50 under setting [1] was 29.1 µM [rising, single point].

On to `COC(=O)c1ccc(C(C(=O)NC2CCCCC2)N(Cc2ccc(F)cc2)C(=O)Cc2cccs2)cc1` (configuration not stated), for which the cell number change was -22.2%. In addition, the AC50 under setting [1] is 29.1 µM [falling, single point].

Turning to `COc1ccc(CNCCc2ccc(Cl)cc2)cc1OCc1ccccc1`, the cell number change is -78.6%. Besides, under setting [2], the AC50 was 14.6 µM [falling, partial curve]. For the same molecule, under setting [1], the AC50 was 20.6 µM [falling, partial curve].

As for `NC(=O)CC(NC(=O)c1ccccc1)c1ccc(N2CCN(c3ccccn3)CC2)c([N+](=O)[O-])c1` (configuration not stated), the cell number change was found to be 4.79%. Under setting [1], the AC50 is 0.206 µM [rising, full curve].

As for `Cc1cc(C(=O)N2CCN(c3ccccc3)CC2)no1`, the cell number change came to 5.13%. For the same molecule, the AC50 under setting [1] was 0.058 µM [falling, full curve].

What is called AC50 is the concentration at which the activity in the assay is half-maximal. Read a high AC50 as weaker potency.
